The numbers were not newly measured in patent US11197828B2, “Solid oral dosage form of lipophilic compounds” (SOLURAL PHARMA APS, priority 2014, dated 2021), which cites them from elsewhere.

The solubility is the concentration that dissolves in the medium under given conditions.

For the data set the following is noted: cited from earlier work.

As for `CC(=O)O[C@H]1C(=O)[C@@]2(C)[C@H]([C@H](OC(=O)c3ccccc3)[C@]3(O)C[C@H](OC(=O)[C@H](O)[C@@H](NC(=O)c4ccccc4)c4ccccc4)C(C)=C1C3(C)C)[C@]1(OC(C)=O)CO[C@@H]1C[C@@H]2O` [Paclitaxel], the solubility was below 50 µg/mL.
